The source of these data is publication doi:10.1101/2021.09.17.460294.

For this assay, the target named is T1, GST-LKB1 (UniProt Q15831).
T1 sequence: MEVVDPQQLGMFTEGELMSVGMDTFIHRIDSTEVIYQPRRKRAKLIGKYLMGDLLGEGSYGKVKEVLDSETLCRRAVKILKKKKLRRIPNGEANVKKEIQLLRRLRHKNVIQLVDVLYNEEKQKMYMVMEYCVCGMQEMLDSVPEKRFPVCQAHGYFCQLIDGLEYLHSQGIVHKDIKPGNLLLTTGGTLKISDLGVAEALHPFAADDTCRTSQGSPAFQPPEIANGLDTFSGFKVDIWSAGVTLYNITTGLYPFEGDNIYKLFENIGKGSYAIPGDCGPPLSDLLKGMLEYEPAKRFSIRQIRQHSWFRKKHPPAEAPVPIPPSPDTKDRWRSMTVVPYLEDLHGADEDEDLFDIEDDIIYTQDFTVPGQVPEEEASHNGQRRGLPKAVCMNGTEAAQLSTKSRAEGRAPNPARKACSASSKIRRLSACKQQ
The assay can be described thus: pull-down.

Results are given in words; binding and its absence hold for the method and conditions named. In cells and extracts the contact can be indirect. Binding calls can cover weak binding; strength is not graded here. Where a sequence is shown, tags or fusion partners need not be part of it.

Regarding “Venus-flag (VF)-tagged cIAP1 N-terminal truncation (N) (domain or fragment)”, the binding entry is given as “binds”.
